Some entries share one result that the patent states for a list of compounds.
Tests used:
Format in all cases: in vivo
Myzus persicae = assay: Insecticidal test against Myzus persicae, spray on radish leaves; details: 100 ppm; 20% acetone aqueous solution sprayed on radish leaves; 25 young larvae; 25° C.; after 5 days
Method: Insecticidal Test Against Myzus persicae
2.5 ml of a 20% acetone aqueous solution prepared to have a predetermined concentration of the test compound was sprayed on the leaves of radish (Raphanus sativus) in which the roots retained water and 25 young larvae were parasitized. After air drying, it was allowed to stand in a thermostatic chamber at 25° C., and the number of living insects and the number of dead insects were examined after 5 days.

Nilaparvata lugens [1] = assay: Insecticidal test against Nilaparvata lugens, root part of rice seedling immersed; details: 100 ppm, 2% acetone aqueous solution, 10 young larvae, 25° C., after 6 days
Method: Insecticidal Test Against Nilaparvata lugens
12.5 ml of a 2% acetone aqueous solution in which the test compound was adjusted to a predetermined concentration was placed in a container, and a root part of a rice (Oryza sativa) seedling fixed with a sponge and a plastic cylinder was immersed. 10 young larvae were released into the container, and the container was covered with a plastic lid. The container was allowed to stand in a thermostatic chamber at 25° C., and the numbers of living insects and dead insects were examined after 6 days.

Sogatella furcifera = assay: Insecticidal test against Sogatella furcifera, spray on rice seedling; details: 100 ppm; acetone solution sprayed on rice seedling; 10 young larvae; 25° C.; after 6 days
Nilaparvata lugens [2] = assay: Insecticidal test against Nilaparvata lugens, spray on rice seedling; details: 100 ppm; acetone solution sprayed on rice seedling; 10 young larvae; 25° C.; after 6 days

Measured: mortality rate

CCSc1c(-c2cn3cnc(C(F)(F)F)cc3n2)nn(C)c1NC(=O)C(F)(F)C(F)(F)F [compound 15]
≥ 50%: Myzus persicae | Nilaparvata lugens [1] | Sogatella furcifera | Nilaparvata lugens [2]

CCSc1c(-c2cn3cnc(C(F)(F)F)cc3n2)nn(C)c1NC(=O)C(F)(F)C(F)(F)C(F)(F)F [compound 16]
≥ 50%: Myzus persicae | Nilaparvata lugens [1] | Sogatella furcifera | Nilaparvata lugens [2]

CCS(=O)(=O)c1c(-c2cn3cnc(C(F)(F)F)cc3n2)nn(C)c1NC(=O)C(F)(F)C(F)(F)F [compound 17]
≥ 50%: Myzus persicae | Nilaparvata lugens [1] | Sogatella furcifera | Nilaparvata lugens [2]

CCCC(=O)Nc1c(S(=O)(=O)CC)c(-c2nc3cc(C(F)(F)F)ncn3n2)nn1C [compound 25]
≥ 50%: Myzus persicae | Nilaparvata lugens [1] | Sogatella furcifera | Nilaparvata lugens [2]

CCS(=O)(=O)c1c(-c2cn3cnc(C(F)(F)F)cc3n2)nn(C)c1NC [compound 31]
≥ 50%: Myzus persicae | Nilaparvata lugens [1] | Sogatella furcifera | Nilaparvata lugens [2]

CCS(=O)(=O)c1c(-c2cn3cnc(C(F)(F)F)cc3n2)nn(C)c1N(C)C(=O)C(F)(F)F [compound 32]
≥ 50%: Myzus persicae | Nilaparvata lugens [1] | Sogatella furcifera | Nilaparvata lugens [2]

CCS(=O)(=O)c1c(-c2cn3cnc(C(F)(F)F)cc3n2)nn(C)c1N(C)C(=O)C(F)F [compound 38]
≥ 50%: Myzus persicae | Nilaparvata lugens [1] | Sogatella furcifera | Nilaparvata lugens [2]

CCSc1c(-c2cn3cnc(C(F)(F)F)cc3n2)nn(C)c1NC(=O)OC [compound 40]
≥ 50%: Myzus persicae | Nilaparvata lugens [1] | Sogatella furcifera | Nilaparvata lugens [2]

CCC(=O)Nc1c(S(=O)(=O)CC)c(-c2cn3cnc(C(F)(F)F)cc3n2)nn1C [compound 42]
≥ 50%: Myzus persicae | Nilaparvata lugens [1] | Sogatella furcifera | Nilaparvata lugens [2]

CCS(=O)(=O)c1c(-c2cn3cnc(C(F)(F)F)cc3n2)nn(C)c1NC(=O)OC [compound 43]
≥ 50%: Myzus persicae | Nilaparvata lugens [1] | Sogatella furcifera | Nilaparvata lugens [2]

CCCC(=O)Nc1c(S(=O)(=O)CC)c(-c2cn3cnc(C(F)(F)F)cc3n2)nn1C [compound 48]
≥ 50%: Myzus persicae | Nilaparvata lugens [1] | Sogatella furcifera | Nilaparvata lugens [2]

CCCCC(=O)Nc1c(S(=O)(=O)CC)c(-c2cn3cnc(C(F)(F)F)cc3n2)nn1C [compound 52]
≥ 50%: Myzus persicae | Nilaparvata lugens [1] | Sogatella furcifera | Nilaparvata lugens [2]

CCSc1c(-c2cn3cnc(C(F)(F)F)cc3n2)nn(CC)c1N [compound 60]
≥ 50%: Myzus persicae | Nilaparvata lugens [1] | Sogatella furcifera | Nilaparvata lugens [2]

CCSc1c(-c2cn3cnc(C(F)(F)F)cc3n2)nn(CC)c1NC(=O)C(F)(F)F [compound 61]
≥ 50%: Myzus persicae | Nilaparvata lugens [1] | Sogatella furcifera | Nilaparvata lugens [2]

CCSc1c(-c2cn3cnc(C(F)(F)F)cc3n2)nn(CC)c1NC(=O)C(F)(F)C(F)(F)F [compound 62]
≥ 50%: Myzus persicae | Nilaparvata lugens [1] | Sogatella furcifera | Nilaparvata lugens [2]

CCSc1c(-c2cn3cnc(C(F)(F)F)cc3n2)nn(CC)c1NC(=O)C(F)(F)C(F)(F)C(F)(F)F [compound 63]
≥ 50%: Myzus persicae | Nilaparvata lugens [1] | Sogatella furcifera | Nilaparvata lugens [2]

CCS(=O)(=O)c1c(-c2cn3cnc(C(F)(F)F)cc3n2)nn(C)c1NC(=O)CCl [compound 73]
≥ 50%: Myzus persicae | Nilaparvata lugens [1] | Sogatella furcifera | Nilaparvata lugens [2]

CCS(=O)(=O)c1c(-c2cn3cnc(C(F)(F)F)cc3n2)nn(C)c1NC(=O)Cn1cccn1 [compound 74]
≥ 50%: Myzus persicae | Nilaparvata lugens [1] | Sogatella furcifera | Nilaparvata lugens [2]

CCn1nc(-c2cn3cnc(C(F)(F)F)cc3n2)c(S(=O)(=O)CC)c1NC [compound 90]
≥ 50%: Myzus persicae | Nilaparvata lugens [1] | Sogatella furcifera | Nilaparvata lugens [2]

CCCn1nc(-c2cn3cnc(C(F)(F)F)cc3n2)c(S(=O)(=O)CC)c1NC(=O)C(F)(F)F [compound 97]
≥ 50%: Myzus persicae | Nilaparvata lugens [1] | Sogatella furcifera | Nilaparvata lugens [2]

CCS(=O)(=O)c1c(-c2cn3cnc(C(F)(F)F)cc3n2)nn(C)c1NC(=O)C(F)(F)Cl [compound 119]
≥ 50%: Myzus persicae | Nilaparvata lugens [1] | Sogatella furcifera | Nilaparvata lugens [2]

CCS(=O)(=O)c1c(-c2cn3cnc(C(F)(F)F)cc3n2)nn(C)c1NC(=O)C(Cl)Cl [compound 120]
≥ 50%: Myzus persicae | Nilaparvata lugens [1] | Sogatella furcifera | Nilaparvata lugens [2]

CCS(=O)(=O)c1c(-c2cn3cnc(C(F)(F)F)cc3n2)nn(C)c1NC(=O)C(F)(F)C(F)(F)Cl [compound 126]
≥ 50%: Myzus persicae | Nilaparvata lugens [1] | Sogatella furcifera | Nilaparvata lugens [2]

CCS(=O)(=O)c1c(-c2cn3cnc(C(F)(F)F)cc3n2)nn(C)c1NC(=O)C(Cl)(Cl)Cl [compound 132]
≥ 50%: Myzus persicae | Nilaparvata lugens [1] | Sogatella furcifera | Nilaparvata lugens [2]

CCS(=O)(=O)c1c(-c2cn3cnc(C(F)(F)F)cc3n2)nn(C)c1NC(=O)CC(F)F [compound 136]
≥ 50%: Myzus persicae | Nilaparvata lugens [1] | Sogatella furcifera | Nilaparvata lugens [2]

CCS(=O)(=O)c1c(-c2cn3cnc(C(F)(F)F)cc3n2)nn(C)c1NC(=O)C1(F)CC1 [compound 146]
≥ 50%: Myzus persicae | Nilaparvata lugens [1] | Sogatella furcifera | Nilaparvata lugens [2]

CCS(=O)(=O)c1c(-c2cn3cnc(C(F)(F)F)cc3n2)nn(CC(F)(F)F)c1NC(=O)C(F)(F)F [compound 151]
≥ 50%: Myzus persicae | Nilaparvata lugens [1] | Sogatella furcifera | Nilaparvata lugens [2]

CCS(=O)(=O)c1c(-c2cn3cnc(C(F)(F)F)cc3n2)nn(C)c1NC(=O)C(F)(Cl)Cl [compound 153]
≥ 50%: Myzus persicae | Nilaparvata lugens [1] | Sogatella furcifera | Nilaparvata lugens [2]

CCS(=O)(=O)c1c(-c2nc3cc(C(F)(F)F)ncn3c2C)nn(C)c1NC(=O)C(F)(F)F [compound 169]
≥ 50%: Myzus persicae | Nilaparvata lugens [1] | Sogatella furcifera | Nilaparvata lugens [2]

CCn1nc(-c2nc3cc(C(F)(F)F)ncn3n2)c(S(=O)(=O)CC)c1NC(=O)C(F)(F)F [compound 172]
≥ 50%: Myzus persicae | Nilaparvata lugens [1] | Sogatella furcifera | Nilaparvata lugens [2]

C=C(F)C(=O)Nc1c(S(=O)(=O)CC)c(-c2cn3cnc(C(F)(F)F)cc3n2)nn1C [compound 173]
≥ 50%: Myzus persicae | Nilaparvata lugens [1] | Sogatella furcifera | Nilaparvata lugens [2]

CCn1nc(-c2nc3cc(C(F)(F)F)ncn3n2)c(S(=O)(=O)CC)c1NC(=O)C(F)(F)C(F)(F)F [compound 176]
≥ 50%: Myzus persicae | Nilaparvata lugens [1] | Sogatella furcifera | Nilaparvata lugens [2]

CCS(=O)(=O)c1c(-c2nc3cc(C(F)(F)F)ncn3n2)nn(C)c1NC(=O)C(F)(F)C(F)F [compound 183]
≥ 50%: Myzus persicae | Nilaparvata lugens [1] | Sogatella furcifera | Nilaparvata lugens [2]

CCn1nc(-c2nc3cc(C(F)(F)F)ncn3n2)c(S(=O)(=O)CC)c1NC(=O)C(F)(F)C(F)F [compound 185]
≥ 50%: Myzus persicae | Nilaparvata lugens [1] | Sogatella furcifera | Nilaparvata lugens [2]

CCn1nc(-c2nc3cc(C(F)(F)F)ncn3n2)c(S(=O)(=O)CC)c1NC(=O)C(Cl)(Cl)Cl [compound 187]
≥ 50%: Myzus persicae | Nilaparvata lugens [1] | Sogatella furcifera | Nilaparvata lugens [2]

CCSc1c(-c2nc3cc(C(F)(F)F)ncn3n2)nn(CC)c1NC(C)=O [compound 188]
≥ 50%: Myzus persicae | Nilaparvata lugens [1] | Nilaparvata lugens [2]

CCS(=O)(=O)c1c(-c2cn3cnc(C(F)(F)F)cc3n2)nn(C)c1NC(=O)C1(C#N)CC1 [compound 285]
≥ 50%: Myzus persicae | Nilaparvata lugens [1] | Nilaparvata lugens [2]

CCn1nc(-c2cn3cnc(C(F)(F)F)cc3n2)c(S(=O)(=O)CC)c1NC(=O)C1(C#N)CC1 [compound 289]
≥ 50%: Myzus persicae | Nilaparvata lugens [1] | Nilaparvata lugens [2]
